Values quoted from earlier work as cited in patent US10167285B2, “Small-molecule HSP90 inhibitors” (Memorial Sloan Kettering Cancer Center, priority 2005, dated 2019).
At least one structure is not confirmed: it was looked up by name or label, or the drawing left a doubt.

Conditions: cited from earlier work

Question: For `C=CCNC1=C2C[C@@H](C)C[C@H](OC)[C@H](O)[C@@H](C)/C=C(\C)[C@H](OC(N)=O)[C@@H](OC)/C=C\C=C(/C)C(=O)NC(=CC1=O)C2=O` [Example 17AAG, 17-allyl-amino-desmethoxy-geldanamycin], which “penetration of the blood brain barrier” value is on record?
Answer: Its value is “do not penetrate the blood brain barrier”.
